The target of test [1] is T1, GFP-tagged human hnRNP H2 (human) (UniProt P55795).
T1 sequence: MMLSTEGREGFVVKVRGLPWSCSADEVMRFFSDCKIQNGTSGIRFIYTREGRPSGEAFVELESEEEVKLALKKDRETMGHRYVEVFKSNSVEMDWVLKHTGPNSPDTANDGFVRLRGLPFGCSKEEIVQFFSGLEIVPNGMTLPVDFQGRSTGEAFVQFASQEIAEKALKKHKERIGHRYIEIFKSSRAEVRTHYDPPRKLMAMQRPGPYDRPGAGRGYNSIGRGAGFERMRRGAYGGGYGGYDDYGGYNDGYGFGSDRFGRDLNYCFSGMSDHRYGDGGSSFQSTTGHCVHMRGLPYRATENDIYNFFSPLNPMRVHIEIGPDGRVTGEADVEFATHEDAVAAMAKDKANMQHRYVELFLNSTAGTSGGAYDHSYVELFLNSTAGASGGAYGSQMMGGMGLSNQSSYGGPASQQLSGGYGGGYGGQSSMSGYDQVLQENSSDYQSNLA
Nature of the test: co-IP; GFP MicroBeads (Miltenyi) IP of GFP-tagged hnRNP F or hnRNP H1/2 from lysate of co-transfected HEK293T cells; IP lysis buffer 100 mM NaCl, 50 mM Tris, 5 mM EGTA, 1% CHAPS, pH 7.5; 2 h at 4 °C; Western blot; also with 100 μg/ml RNase A in the lysis buffer (associations maintained).

Protein sequences, listed by entry. Tags and fused reporters are not part of them.
UniProt P97801: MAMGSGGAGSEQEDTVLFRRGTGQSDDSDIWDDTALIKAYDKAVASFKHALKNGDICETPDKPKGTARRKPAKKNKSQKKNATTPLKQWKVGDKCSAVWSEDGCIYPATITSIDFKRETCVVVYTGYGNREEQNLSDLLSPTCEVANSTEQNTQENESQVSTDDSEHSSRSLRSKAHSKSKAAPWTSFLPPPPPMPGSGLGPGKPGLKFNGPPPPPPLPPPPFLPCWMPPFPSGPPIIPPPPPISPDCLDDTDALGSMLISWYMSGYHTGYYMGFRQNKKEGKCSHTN
UniProt Q16637: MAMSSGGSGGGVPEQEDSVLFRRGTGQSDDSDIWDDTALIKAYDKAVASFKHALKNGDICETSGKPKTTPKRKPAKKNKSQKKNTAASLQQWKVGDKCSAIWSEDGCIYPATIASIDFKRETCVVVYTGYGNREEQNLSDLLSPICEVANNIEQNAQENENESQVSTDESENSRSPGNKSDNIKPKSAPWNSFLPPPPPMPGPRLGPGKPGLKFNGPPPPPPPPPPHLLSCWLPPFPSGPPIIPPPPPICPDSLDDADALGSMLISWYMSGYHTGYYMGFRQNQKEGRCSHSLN

For test [2], the target named is T2, GFP-tagged human hnRNP F (human) (UniProt P52597).
T2 sequence: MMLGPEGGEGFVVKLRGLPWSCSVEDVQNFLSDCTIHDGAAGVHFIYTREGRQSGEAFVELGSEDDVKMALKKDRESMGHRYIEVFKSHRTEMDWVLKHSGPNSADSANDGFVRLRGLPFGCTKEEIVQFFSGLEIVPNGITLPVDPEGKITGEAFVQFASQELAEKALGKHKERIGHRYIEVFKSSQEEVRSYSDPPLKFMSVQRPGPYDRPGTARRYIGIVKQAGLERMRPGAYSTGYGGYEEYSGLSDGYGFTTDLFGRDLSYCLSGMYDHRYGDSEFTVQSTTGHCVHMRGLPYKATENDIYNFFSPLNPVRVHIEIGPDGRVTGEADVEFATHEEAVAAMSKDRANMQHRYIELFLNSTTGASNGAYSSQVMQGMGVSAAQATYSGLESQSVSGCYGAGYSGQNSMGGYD
Described as above.

In test [3] the target is T3, endogenous mouse Plastin 3 (mouse (endogenous in mouse brain)) (UniProt Q99K51).
T3 sequence: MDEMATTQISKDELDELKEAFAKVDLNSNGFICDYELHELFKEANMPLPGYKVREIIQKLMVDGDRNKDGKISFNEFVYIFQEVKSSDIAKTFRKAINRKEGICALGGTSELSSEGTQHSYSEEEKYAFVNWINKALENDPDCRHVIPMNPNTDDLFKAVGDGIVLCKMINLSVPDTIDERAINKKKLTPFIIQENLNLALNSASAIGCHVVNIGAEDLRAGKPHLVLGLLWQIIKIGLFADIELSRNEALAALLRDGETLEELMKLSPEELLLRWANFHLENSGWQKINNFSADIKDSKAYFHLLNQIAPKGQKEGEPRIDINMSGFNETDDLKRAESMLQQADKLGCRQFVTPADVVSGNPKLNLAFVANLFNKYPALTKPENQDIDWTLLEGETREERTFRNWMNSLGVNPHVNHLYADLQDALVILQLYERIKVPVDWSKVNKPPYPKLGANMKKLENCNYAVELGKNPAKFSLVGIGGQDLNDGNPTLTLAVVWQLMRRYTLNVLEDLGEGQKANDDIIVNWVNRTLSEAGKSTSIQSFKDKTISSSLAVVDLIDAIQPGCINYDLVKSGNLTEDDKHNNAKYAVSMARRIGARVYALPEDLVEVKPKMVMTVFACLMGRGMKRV
Nature of the test: co-IP; endogenous proteins from whole adult mouse brain lysate (RIPA buffer); 750 μg lysate with 2 μg antibody against SMN or against PLS3, protein G beads, 4 °C; Western blot.

Test [4] has as its target endogenous mouse SMN (mouse (endogenous in mouse brain)) (UniProt P97801). The description is as above.

Data on three molecules can be found in publication PMC7495824.

These are yes or no findings as the source states them, for the method shown. In cells and extracts the contact can be indirect. Some binding calls cover weakened binding; strength is not graded here. For part of these data: Tags and fused reporters may be left off the sequences shown.

As for “V5-tagged human SMN (from UniProt Q16637 1-294)”, the binding entry in test [1] and in test [2] was “binds” in each case.

B1: endogenous mouse hnRNP F (protein, UniProt Q9Z2X1 1-415)
chain: MMLGPEGGEGYVVKLRGLPWSCSIEDVQNFLSDCTIHDGVAGVHFIYTREGRQSGEAFVELESEDDVKLALKKDRESMGHRYIEVFKSHRTEMDWVLKHSGPNSADSANDGFVRLRGLPFGCTKEEIVQFFSGLEIVPNGITLPVDPEGKITGEAFVQFASQELAEKALGKHKERIGHRYIEVFKSSQEEVRSYSDPPLKFMSVQRPGPYDRPGTARRYIGIVKQAGLDRMRSGAYSAGYGGYEEYSGLSDGYGFTTDLFGRDLSYCLSGMYDHRYGDSEFTVQSTTGHCVHMRGLPYKATENDIYNFFSPLNPVRVHIEIGPDGRVTGEADVEFATHEEAVAAMSKDRANMQHRYIELFLNSTTGASNGAYSSQVMQGMGVSAAQATYSGLESQSVSGCYGAGYSGQNSMGGYD
As to B1, the binding result in test [3] and in test [4] was “binds” in each case.

B2: Flag-tagged human Plastin 3 (protein, UniProt P13797 1-630)
chain: MDEMATTQISKDELDELKEAFAKVDLNSNGFICDYELHELFKEANMPLPGYKVREIIQKLMLDGDRNKDGKISFDEFVYIFQEVKSSDIAKTFRKAINRKEGICALGGTSELSSEGTQHSYSEEEKYAFVNWINKALENDPDCRHVIPMNPNTDDLFKAVGDGIVLCKMINLSVPDTIDERAINKKKLTPFIIQENLNLALNSASAIGCHVVNIGAEDLRAGKPHLVLGLLWQIIKIGLFADIELSRNEALAALLRDGETLEELMKLSPEELLLRWANFHLENSGWQKINNFSADIKDSKAYFHLLNQIAPKGQKEGEPRIDINMSGFNETDDLKRAESMLQQADKLGCRQFVTPADVVSGNPKLNLAFVANLFNKYPALTKPENQDIDWTLLEGETREERTFRNWMNSLGVNPHVNHLYADLQDALVILQLYERIKVPVDWSKVNKPPYPKLGANMKKLENCNYAVELGKHPAKFSLVGIGGQDLNDGNQTLTLALVWQLMRRYTLNVLEDLGDGQKANDDIIVNWVNRTLSEAGKSTSIQSFKDKTISSSLAVVDLIDAIQPGCINYDLVKSGNLTEDDKHNNAKYAVSMARRIGARVYALPEDLVEVKPKMVMTVFACLMGRGMKRV
As for B2, the binding entry in test [1] and in test [2] was “binds” throughout.
